At least one structure is not confirmed: it was looked up by name or label, or the drawing left a doubt. Some entries share one result that the patent states for a list of compounds.
How the values were obtained:
[1] = system: AR-specific transcriptional activity in LNCaP cells; assay: Quantitative RT-PCR of AR-directed genes PSA and TMPRSS2; type: cell-based, human; details: 250 nM ganetespib or 1 μM geldanamycin, 24 h, 10 nM R1881
Method: LNCaP cells were cultured in charcoal-stripped medium for 24 h and then treated with 250 nM ganetespib, 1 μM geldanamycin, or vehicle for 24 h in the absence or presence of 10 nM methyltrienolone (R1881). RNA was prepared from the LNCaP cells post-treatment using TRIzol reagent (Invitrogen, Grand Island, N.Y., USA). Previously reported prostate specific antigen (PSA), transmembrane protease, serine 2 (TMPRSS2), and 18S primer sets were used for target gene expression and were analyzed using SYBR green PCR Master mix in an ABI 7500 Fast sequence detection system. See, e.g., Agoulnik et al (2006), Androgens modulate expression of transcription intermediary factor 2, an androgen receptor coactivator whose expression level correlates with early biochemical recurrence in prostate cancer. Cancer Res 66 10594-10602. PSA and TMPRSS2 mRNA levels were normalized to 18S mRNA values.

[2] = system: DU145 cells (EGFR, STAT3, IGF-IR); assay: Western blot of Hsp90 client proteins, DU145; type: cell-based, human
Source text: Prostate cancer cell lines were lysed in RIPA buffer (Cell Signaling Technology, Beverly, Mass. USA) and HeLa lysed by four rounds of freeze/thawing using 1× Reporter Lysis Buffer (Promega, Madison, Wis., USA) containing 0.4 M NaCl. Lysates were clarified by centrifugation and equal amounts of protein resolved by SDSPAGE before transfer to nitrocellulose membranes. Membranes were blocked with 5% skim milk in TBS with 0.5% Tween and immunoblotted with indicated antibodies. Antigen-antibody complexes were visualized using an Odyssey system (LI-COR, Lincoln, Nebr., USA).

Row | SMILES | R1881 induction of PSA and TMPRSS2 mRNA [1] | time by which destabilization of IGF-IR and p-STAT3 was evident [2] [h]
1 | COC1=C2C[C@@H](C)C[C@H](OC)[C@H](O)[C@@H](C)/C=C(\C)[C@H](OC(N)=O)[C@@H](OC)/C=C\C=C(/C)C(=O)NC(=CC1=O)C2=O [geldanamycin, reference compound] | significantly inhibited | 
2 | C=CCNC1=C2C[C@@H](C)C[C@H](OC)[C@H](O)[C@@H](C)/C=C(\C)[C@H](OC(N)=O)[C@@H](OC)/C=C\C=C(/C)C(=O)NC(=CC1=O)C2=O [Compound 17-AAG, 17-AAG, reference compound] |  | ≤ 6
3 | CC(C)c1cc(-c2nnc(O)n2-c2ccc3c(ccn3C)c2)c(O)cc1O [Ganetespib, 3-(2,4-dihydroxy-5-isopropyl-phenyl)-4-(1-methyl-indol-5-yl)-5-hydroxy-[1,2,4] triazole] |  | ≤ 6

Reference: patent US20140051665A1, “PROSTATE CANCER THERAPY WITH HSP90 INHIBITORY COMPOUNDS” (SYNTA PHARMACEUTICALS CORP., priority 2011, published 2014)
